Measured values as given in patent US20080131910A1.
These are yes or no findings as the source states them, for the method shown. Some binding calls cover weakened binding; strength is not graded here.

What was measured:
[1] = molecular target: T1, ALK-2 (activin receptor like kinase 2), human (human), Q04771; experiment: affinity cross-linking followed by immunoprecipitation, COS-1 cells co-transfected with ActR-II and the ALK; conditions: remark: other sources report otherwise
T1 chain: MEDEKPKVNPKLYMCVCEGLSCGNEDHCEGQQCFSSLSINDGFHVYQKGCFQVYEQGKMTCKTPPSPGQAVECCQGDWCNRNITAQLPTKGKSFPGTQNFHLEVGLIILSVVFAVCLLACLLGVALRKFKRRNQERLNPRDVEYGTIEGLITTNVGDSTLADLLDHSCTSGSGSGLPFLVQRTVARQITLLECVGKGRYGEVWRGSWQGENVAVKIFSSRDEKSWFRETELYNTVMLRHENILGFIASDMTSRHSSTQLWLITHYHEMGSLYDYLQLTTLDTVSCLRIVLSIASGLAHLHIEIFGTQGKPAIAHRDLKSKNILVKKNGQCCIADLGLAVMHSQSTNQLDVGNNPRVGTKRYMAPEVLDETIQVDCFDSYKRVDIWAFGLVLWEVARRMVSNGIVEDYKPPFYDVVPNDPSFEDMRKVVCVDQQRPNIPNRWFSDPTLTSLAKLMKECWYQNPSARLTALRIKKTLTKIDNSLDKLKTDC

[2] = molecular target: T2, ALK-2 endogenous in PAE/Chim A cells (porcine), E9M2M1; experiment: 125I-activin A cross-linking followed by immunoprecipitation, PAE/Chim A cells; conditions: remark: other sources report otherwise
T2 chain: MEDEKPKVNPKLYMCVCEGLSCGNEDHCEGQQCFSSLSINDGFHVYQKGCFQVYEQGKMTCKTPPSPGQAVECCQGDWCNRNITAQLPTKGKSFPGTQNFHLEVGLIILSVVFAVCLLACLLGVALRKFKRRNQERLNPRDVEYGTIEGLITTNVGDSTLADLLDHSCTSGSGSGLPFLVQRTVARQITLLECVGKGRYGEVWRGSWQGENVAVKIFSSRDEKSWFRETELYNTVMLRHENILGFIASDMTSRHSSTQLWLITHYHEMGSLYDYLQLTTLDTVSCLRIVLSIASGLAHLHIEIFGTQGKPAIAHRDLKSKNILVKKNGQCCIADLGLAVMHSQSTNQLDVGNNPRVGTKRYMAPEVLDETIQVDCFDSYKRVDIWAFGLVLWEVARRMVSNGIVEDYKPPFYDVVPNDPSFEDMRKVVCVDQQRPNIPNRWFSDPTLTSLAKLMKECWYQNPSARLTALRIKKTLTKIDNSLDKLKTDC

- binding [1]: binds
- binding [2]: binds
B1: Recombinant human activin A, P08476 311-426 (ligand, UniProt P08476 311-426, looked up)
chain: GLECDGKVNICCKKQFFVSFKDIGWNDWIIAPSGYHANYCEGECPSHIAGTSGSSLSFHSTVINHYRMRGHSPFANLKSCCVPTKLRPMSMLYYDDGQNIIKKDIQNMIVEECGCS
modifications: here or on the partner: 125I-iodinated (chloramine T method)
